Assay results reported in patent publication US20220372097A1.
These are yes or no findings as the source states them, for the method shown. Some results given as binding are weak or reduced against the parent protein; the word gives no strength. Sequences can lack the tags named with a protein.

Molecular target: T1, IL-15 receptor on murine CTLL-2 cells (mouse) (UniProt Q60819+P16297+P34902)
T1 sequence (looked up) 1: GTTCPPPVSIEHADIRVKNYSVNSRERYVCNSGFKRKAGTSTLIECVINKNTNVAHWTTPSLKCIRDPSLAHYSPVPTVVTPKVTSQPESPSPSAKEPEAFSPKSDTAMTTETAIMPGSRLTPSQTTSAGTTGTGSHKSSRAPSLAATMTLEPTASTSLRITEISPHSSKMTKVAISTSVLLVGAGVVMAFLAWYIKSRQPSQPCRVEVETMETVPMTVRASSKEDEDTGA
T1 sequence (looked up) 2: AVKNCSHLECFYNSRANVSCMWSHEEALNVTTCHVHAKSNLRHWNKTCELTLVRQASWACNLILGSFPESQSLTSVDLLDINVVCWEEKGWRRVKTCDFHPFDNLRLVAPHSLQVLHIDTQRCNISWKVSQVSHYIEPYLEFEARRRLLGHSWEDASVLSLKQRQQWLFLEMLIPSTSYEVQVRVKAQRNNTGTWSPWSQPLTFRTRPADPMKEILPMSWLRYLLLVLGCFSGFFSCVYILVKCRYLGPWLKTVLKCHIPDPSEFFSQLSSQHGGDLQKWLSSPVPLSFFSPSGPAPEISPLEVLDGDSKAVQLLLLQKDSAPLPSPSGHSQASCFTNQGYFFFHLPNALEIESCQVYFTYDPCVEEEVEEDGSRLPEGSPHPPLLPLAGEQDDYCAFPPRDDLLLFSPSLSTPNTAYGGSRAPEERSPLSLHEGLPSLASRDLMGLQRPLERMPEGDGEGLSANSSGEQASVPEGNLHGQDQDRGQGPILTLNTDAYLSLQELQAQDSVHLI
T1 sequence (looked up) 3: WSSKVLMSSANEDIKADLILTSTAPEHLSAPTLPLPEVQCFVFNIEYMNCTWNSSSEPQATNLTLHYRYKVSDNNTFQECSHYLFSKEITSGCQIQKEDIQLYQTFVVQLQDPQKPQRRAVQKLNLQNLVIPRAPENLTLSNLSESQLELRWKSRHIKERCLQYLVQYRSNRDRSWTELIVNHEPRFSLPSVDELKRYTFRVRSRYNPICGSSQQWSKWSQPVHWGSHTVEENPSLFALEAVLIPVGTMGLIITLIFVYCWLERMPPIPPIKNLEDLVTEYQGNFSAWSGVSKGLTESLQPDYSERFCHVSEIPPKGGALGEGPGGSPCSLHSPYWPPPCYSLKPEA
Assay: flow cytometry of FITC-conjugated protein on CTLL-2 cells

B1: Fusion polypeptide SEQ ID NO: 28 (modified IL-15), FITC conjugated (ligand)
chain: MNWVNVISDLKKIEDLIQSMHIDATLYTESDVHPSCKVTAMKCFLLELQVISLESGDASIHDTVENLIILANNSLSSGNVTESGCKECEELEEKNIKEFLQSFVHIVQMFINTSGSGSRGKSLTSKVPPTVQKPTTVNVPTTEVSPTSQKTTTHHHHHHC
modifications: labelled with fluorescein isothiocyanate (FITC); labelled residues not stated
binding: binds
